From publication PMC6142817, “New Urea Derivatives Are Effective Anti-senescence Compounds Acting Most Likely via a Cytokinin-Independent Mechanism” (Frontiers in Plant Science, 2018)

System: endogenous cytokinins in detached wheat leaves
Test: Cytokinin analysis of leaves from the WLSA (UHPLC-MS/MS)
Set-up: species or system Triticum aestivum
Settings: 10 μM compound; for Cytokinin level: Total / Cytokinin level: Total bases / Cytokinin level: Total cZ-types / Cytokinin level: Total tZ-types / Cytokinin level: cZ / Cytokinin level: cZOG / Cytokinin level: tZ / Cytokinin level: tZR: detached wheat leaves, 5 days in the dark, S.D. in brackets

| SMILES | cZOG content, fold increase compared to TDZ-treated leaves (WLSA leaves) | tZ content, fold higher than in fresh control leaves (WLSA leaves) [fold] | tZ-riboside content, fold higher than in fresh control leaves (WLSA leaves) [fold] | total cytokinin content, fold increase compared to DMSO-treated leaves (WLSA leaves) [fold] | total cytokinin content, fold increase compared to TDZ-treated leaves (WLSA leaves) [fold] | Cytokinin level: Total | Cytokinin level: Total bases | Cytokinin level: Total cZ-types | Cytokinin level: Total tZ-types | Cytokinin level: cZ | Cytokinin level: cZOG | Cytokinin level: tZ | Cytokinin level: tZR |
| --- | --- | --- | --- | --- | --- | --- | --- | --- | --- | --- | --- | --- | --- |
| COCCNC(=O)Nc1cnns1 [ASES, 1-(2-methoxy-ethyl)-3-1,2,3-thiadiazol-5-yl-urea] | approximately 2.2 fold | 6.0 | 25 | 1.5 | 1.7 | 521.9 (132.6) pmol/g FW | 11.4 (0.3) pmol/g FW | 499.1 (133) pmol/g FW | 13.8 (0.8) pmol/g FW | 3.0 (0.6) pmol/g FW | 474.7 (133.8) pmol/g FW | 1.3 (0.1) pmol/g FW | 7.0 (0.4) pmol/g FW |
| O=C(Nc1ccccc1)Nc1cnns1 [TDZ, 1-phenyl-3-(1,2,3-thiadiazol-5-yl)urea, reference compound] | – | 8.8 | 25 | – | – | 305.3 (16.2) pmol/g FW | 12.0 (0.5) pmol/g FW | 272.3 (16) pmol/g FW | 17.6 (1.5) pmol/g FW | 4.3 (0.7) pmol/g FW | 207.1 (3.3) pmol/g FW | 1.8 (0.3) pmol/g FW | 7.1 (1.8) pmol/g FW |
